This assay concerns the target MBP-TcpF fusion protein (TIR domain-containing protein in E. faecalis, TcpF) (Enterococcus faecalis (strain E99)) (UniProt Q833J1). In words: co-IP; purified recombinant MBP, MBP-TcpF or MBP-TcpFm mixed with 1 mg RAW264.7 cell lysate overnight at 4°C; precleared with protein A Sepharose; precipitated with anti-MBP antibody and protein A Sepharose for 4 hours; beads washed three times in lysate buffer; immunoblot with MyD88-specific antibody; only the target purified. (In general: In western blotting, separated proteins are transferred to a membrane and probed.)

Amino acid sequences for entries named in this document (tags omitted).
UniProt Q833J1: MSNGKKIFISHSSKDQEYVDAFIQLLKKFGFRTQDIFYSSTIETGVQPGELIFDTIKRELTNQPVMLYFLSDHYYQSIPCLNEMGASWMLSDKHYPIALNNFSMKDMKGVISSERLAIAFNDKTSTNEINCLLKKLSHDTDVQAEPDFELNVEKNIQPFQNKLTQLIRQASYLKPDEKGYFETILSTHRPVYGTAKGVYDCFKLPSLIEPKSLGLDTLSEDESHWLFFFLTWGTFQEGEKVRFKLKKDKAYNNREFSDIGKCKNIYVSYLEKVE
UniProt P22366: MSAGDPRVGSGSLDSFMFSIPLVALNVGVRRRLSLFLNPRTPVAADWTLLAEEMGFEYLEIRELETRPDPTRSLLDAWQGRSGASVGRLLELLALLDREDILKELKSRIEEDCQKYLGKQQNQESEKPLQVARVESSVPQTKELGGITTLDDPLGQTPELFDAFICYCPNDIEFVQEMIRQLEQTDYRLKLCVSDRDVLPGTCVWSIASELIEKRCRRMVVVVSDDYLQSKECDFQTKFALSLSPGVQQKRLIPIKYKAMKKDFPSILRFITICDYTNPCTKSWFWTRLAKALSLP

Drawing on article PMC4219826, this text covers binding for one substance.

Results are given in words; binding and its absence hold for the method and conditions named. In cells and extracts the contact can be indirect. Some binding calls cover weakened binding; strength is not graded here.

On to MyD88 (from UniProt P22366 1-296), for which the binding result was “binds”.
